In PubChem BioAssay AID248 (DTP/NCI, 2004):
The list shows only some results of the screen, not a fair sample: it is rich in T/C values a quarter to a half above the control, in often repeated tests (any T/C) and in doses without a T/C. Further doses and runs are listed elsewhere. T/C: endpoint of the treated group in % of that of the vehicle group. Some entries give survivors of the animals treated and no T/C: the source files T/C as zero there, which appears to mark a toxic dose or a test without result, not a measured value. Some doses without a T/C left all or most animals alive at the check, yet need not have been tolerated: the source hardly ever lists a survival T/C far under the control, and the zero likely stands for such cases as well. Counts of survivors are from the toxicity check (mostly the fifth day) where no day follows; animals may have died later. Schedule codes are those of the source, read here as Q, the interval in days (D) or hours (H), X, the number of doses. Some entries hold several experiments; the values are given in rising order. Some schedules carry Z or #; the key to these is not given. Where survival is the endpoint, the PubChem record calls one and a half times the control and up active, and a quarter to a half above the control has no call in these data; cut-offs in other NCI protocols can differ. Some T/C values carry the count of animals alive at the toxicity check (mostly the fifth day); where none is given, no animal had died by that day.

System: L1210 leukemia ip in BDF1 mice, survival T/C
Assay: NCI In Vivo Anticancer Drug Screen. Data for tumor model L1210 Leukemia (intraperitoneal) in B6D2F1 (BDF1) mice
Settings: T/C endpoint: mean survival time, higher T/C = longer survival
[1] = dose: 50.0 mg/kg/injection, schedule: Q01DX001 (ip), vehicle: carboxymethylcellulose (CMC)
[2] = dose: 100.0 mg/kg/injection, schedule: Q01DX001 (ip), vehicle: carboxymethylcellulose (CMC)
[3] = dose: 200.0 mg/kg/injection, schedule: Q01DX001 (ip), vehicle: carboxymethylcellulose (CMC)
[4] = dose: 400.0 mg/kg/injection, schedule: Q01DX001 (ip), vehicle: carboxymethylcellulose (CMC)
[5] = dose: 400.0 mg/kg/injection, schedule: Q01DX009 (ip), vehicle: saline
[6] = dose: 200.0 mg/kg/injection, schedule: Q01DX009 (ip), vehicle: saline
[7] = dose: 400.0 mg/kg/injection, schedule: Q01DX009 (ip), vehicle: saline with Tween-80

Structure (SMILES): CCN1C=C/C(=C\C=C/c2cc[n+](CC)c3ccccc23)c2ccccc21
- T/C (dose: 0.08 mg/kg/injection, schedule: Q01DX Z (ip), vehicle: methylcellulose (MC)): 128 % of control
- T/C (dose: 0.11 mg/kg/injection, schedule: Q01DX Z (ip), vehicle: methylcellulose (MC)): 128 % of control [5 of 6 alive]
- T/C (dose: 0.15 mg/kg/injection, schedule: Q01DX Z (ip), vehicle: methylcellulose (MC)): 127 % of control
- T/C (dose: 0.2 mg/kg/injection, schedule: Q01DX Z (ip), vehicle: methylcellulose (MC)): 107, 117, 119, 124, 202 % of control [5 of 6 alive]
- survivor count (dose: 0.4 mg/kg/injection, schedule: Q01DX Z (ip), vehicle: methylcellulose (MC)): 2 of 6
- survivor count (dose: 0.44 mg/kg/injection, schedule: Q03HX024 (ip), vehicle: saline with Tween-80): 9 of 10
- survivor count (dose: 0.48 mg/kg/injection, schedule: Q03HX024 (ip), vehicle: saline with Tween-80): 6 of 10
- survivor count (dose: 0.5 mg/kg/injection, schedule: Q01DX Z (ip), vehicle: methylcellulose (MC)): 3 of 6
- survivor count (dose: 0.74 mg/kg/injection, schedule: Q03HX024 (ip), vehicle: saline with Tween-80): 6 of 10
- survivor count (dose: 1.0 mg/kg/injection, schedule: Q04DX003 (ip), vehicle: saline with Tween-80): 6 of 10
- survivor count (dose: 1.1 mg/kg/injection, schedule: Q01DX009 (ip), vehicle: saline with Tween-80): 3 of 10
- survivor count (dose: 1.1 mg/kg/injection, schedule: Q03HX024 (ip), vehicle: saline with Tween-80): 0 of 10 and 1 of 10
- survivor count (dose: 1.7 mg/kg/injection, schedule: Q01DX009 (ip), vehicle: saline with Tween-80): 4 of 10 and 6 of 10
- survivor count (dose: 1.7 mg/kg/injection, schedule: Q03HX024 (ip), vehicle: saline with Tween-80): 0 of 10
- survivor count (dose: 2.0 mg/kg/injection, schedule: Q01DX009 (ip), vehicle: saline): 3 of 6
- survivor count (dose: 2.5 mg/kg/injection, schedule: Q01DX009 (ip), vehicle: saline with Tween-80): 0 of 10
- survivor count (dose: 2.5 mg/kg/injection, schedule: Q03HX024 (ip), vehicle: saline with Tween-80): 0 of 10
- survivor count (dose: 3.3 mg/kg/injection, schedule: Q04DX003 (ip), vehicle: saline with Tween-80): 4 of 10 and 9 of 10
- survivor count (dose: 4.4 mg/kg/injection, schedule: Q01DX001 (ip), vehicle: saline with Tween-80): 6 of 10
- survivor count (dose: 4.4 mg/kg/injection, schedule: Q04DX003 (ip), vehicle: saline with Tween-80): 5 of 10
- survivor count (dose: 4.8 mg/kg/injection, schedule: Q01DX001 (ip), vehicle: saline with Tween-80): 6 of 10
- survivor count (dose: 4.8 mg/kg/injection, schedule: Q04DX003 (ip), vehicle: saline with Tween-80): 3 of 10
- survivor count (dose: 6.25 mg/kg/injection, schedule: Q04DX003 (ip), vehicle: saline sonified): 4 of 6
- survivor count (dose: 7.4 mg/kg/injection, schedule: Q01DX001 (ip), vehicle: saline with Tween-80): 0 of 10
- survivor count (dose: 7.4 mg/kg/injection, schedule: Q04DX003 (ip), vehicle: saline with Tween-80): 0 of 10 and 3 of 10
- survivor count (dose: 11.0 mg/kg/injection, schedule: Q01DX001 (ip), vehicle: saline with Tween-80): 0 of 10 and 1 of 10
- survivor count (dose: 11.0 mg/kg/injection, schedule: Q04DX003 (ip), vehicle: saline with Tween-80): 0 of 10 and 5 of 10
- survivor count (dose: 12.5 mg/kg/injection, schedule: Q04DX003 (ip), vehicle: saline sonified): 4 of 6
- survivor count (dose: 16.5 mg/kg/injection, schedule: Q01DX001 (ip), vehicle: saline with Tween-80): 0 of 10
- survivor count (dose: 16.5 mg/kg/injection, schedule: Q04DX003 (ip), vehicle: saline with Tween-80): 1 of 10
- survivor count (dose: 17.0 mg/kg/injection, schedule: Q01DX001 (ip), vehicle: saline with Tween-80): 0 of 10
- survivor count (dose: 17.0 mg/kg/injection, schedule: Q04DX003 (ip), vehicle: saline with Tween-80): 0 of 10
- survivor count (dose: 25.0 mg/kg/injection, schedule: Q01DX001 (ip), vehicle: saline with Tween-80): 0 of 10
- survivor count (dose: 25.0 mg/kg/injection, schedule: Q04DX003 (ip), vehicle: saline sonified): 1 of 6
- survivor count (dose: 25.0 mg/kg/injection, schedule: Q04DX003 (ip), vehicle: saline with Tween-80): 1 of 10
- survivor count [1]: 0 of 4
- survivor count [2]: 0 of 4
- survivor count [3]: 0 of 4
- survivor count [4]: 0 of 4

Structure (SMILES): CCOCCN=Cc1ccccc1O.CCOCCN=Cc1ccccc1O.[Co]
- survivor count (dose: 400.0 mg/kg/injection, schedule: Q01DX001 (ip), vehicle: saline): 0 of 6

Structure (SMILES): Oc1cccc(C(c2ccccc2)c2ccccc2)c1
- T/C (dose: 400.0 mg/kg/injection, schedule: Q01DX001 (ip), vehicle: saline with Tween-80): 127 % of control [2 of 3 alive]

Structure (SMILES): O=S(=O)(Nc1nccs1)c1ccc(N(CCCl)CCCl)cc1
- survivor count (dose: 100.0 mg/kg/injection, schedule: Q01DX009 (ip), vehicle: Klucel (hydroxypropylcellulose) (HPC)): 3 of 3
- survivor count (dose: 200.0 mg/kg/injection, schedule: Q01DX009 (ip), vehicle: Klucel (hydroxypropylcellulose) (HPC)): 2 of 3

Structure (SMILES): Nc1cc(F)c([N+](=O)[O-])cc1[N+](=O)[O-]
- survivor count (dose: 64.0 mg/kg/injection, schedule: Q01DX015 (ip), vehicle: carboxymethylcellulose (CMC)): 6 of 6

Structure (SMILES): CC(=O)[O][Hg][c]1cc2c(cc1N)Cc1cc([N+](=O)[O-])ccc1-2
- survivor count (dose: 25.0 mg/kg/injection, schedule: Q01DX001 (ip), vehicle: carboxymethylcellulose (CMC)): 2 of 6
- survivor count [1]: 0 of 6
- survivor count [2]: 0 of 6 and 1 of 4
- survivor count [3]: 0 of 4
- survivor count [4]: 0 of 4

Structure (SMILES): N#C/C(=N\N=Nc1ccccc1)c1cccc2ccccc12
- survivor count (dose: 400.0 mg/kg/injection, schedule: Q01DX009 (ip), vehicle: gum acacia): 0 of 6

Structure (SMILES): Cc1[nH]nc(C(F)(F)F)c1N=NN(C)C
- survivor count (dose: 265.0 mg/kg/injection, schedule: Q01DX009 (ip), vehicle: saline): 4 of 6
- survivor count [5]: 5 of 6
- survivor count (dose: 600.0 mg/kg/injection, schedule: Q01DX009 (ip), vehicle: saline): 5 of 6

Structure (SMILES): CCN(CC)CCOC(=O)Nc1cccc(Cl)c1
- survivor count [6]: 0 of 6
- survivor count [5]: 0 of 6

Structure (SMILES): CNC(=N)c1ccc(NC(=N)c2ccc(NC(=O)Nc3ccc(NC(=O)Nc4ccc(C(=N)Nc5ccc(C(=N)NC)cc5)cc4)cc3)cc2)cc1
- T/C (dose: 3.0 mg/kg/injection, schedule: Q01DX015 (ip), vehicle: water): 131 % of control
- T/C (dose: 3.75 mg/kg/injection, schedule: Q01DX Z (ip), vehicle: water): 146 % of control [5 of 6 alive]
- survivor count (dose: 61.5 mg/kg/injection, schedule: Q01DX Z (ip), vehicle: water): 3 of 6
- survivor count (dose: 123.0 mg/kg/injection, schedule: Q01DX Z (ip), vehicle: water): 0 of 6
- survivor count (dose: 246.0 mg/kg/injection, schedule: Q01DX Z (ip), vehicle: water): 0 of 6

Structure (SMILES): O=C1NC(=O)C(c2ccc(O)cc2)N1 (stereo unspecified)
- survivor count [7]: 5 of 5

Structure (SMILES): [CH3][Sn]1([CH3])[CH2]CC[CH2]1
- survivor count (dose: 50.0 mg/kg/injection, schedule: Q01DX009 (ip), vehicle: saline): 1 of 3
- survivor count (dose: 100.0 mg/kg/injection, schedule: Q01DX009 (ip), vehicle: saline): 1 of 3
- survivor count [6]: 0 of 3

Structure (SMILES): O=C(O)C(Br)C(Br)C(=O)Nc1cccc2ccccc12 (stereo unspecified)
- survivor count (dose: 200.0 mg/kg/injection, schedule: Q01DX009 (ip), vehicle: saline with Tween-80): 1 of 6
- survivor count [7]: 0 of 6
